Converted amounts (≈) assume the structure as drawn.
System: Escherichia coli
Experiment: Antimicrobial activity against Escherichia coli ATCC 25922 by CLSI and EUCAST protocol based assay
Assay type: functional

CN[C@H](CC(C)C)C(=O)N[C@H]1C(=O)N[C@@H](CC(N)=O)C(=O)N[C@H]2C(=O)N[C@H]3C(=O)N[C@H](C(=O)N[C@H](C(=O)O)c4cc(O)cc(O)c4-c4cc3ccc4O)[C@H](O)c3ccc(c(Cl)c3)Oc3cc2cc(c3O[C@@H]2O[C@H](CO)[C@@H](O)[C@H](O)[C@H]2O[C@H]2C[C@](C)(N)[C@H](O)[C@H](C)O2)Oc2ccc(cc2Cl)[C@H]1O [VANCOMYCIN]
MIC: 256 µg/mL (≈ 177 µM)

— ChEMBL document CHEMBL4619716, “Machine Learning in Mass Spectrometry: A MALDI-TOF MS Approach to Phenotypic Antibacterial Screening” (2020)
